# According to PubChem BioAssay AID445 (National Center for Advancing Translational Sciences (NCATS), 2006):
# This is one part of the list. Shown are side measurements of this screen, not its main read-out; they come without a call. Most of these compounds were active or inconclusive in the main read-out, so they are no random draw. Words in brackets tell the shape of the fitted curve; partial curves, single points and poor fits give uncertain potencies.
# Test: IkB Signaling
# Conditions: ABC-DLBCL IkBa-CBG/CBR dual luciferase ratio (green luciferase fused to IkBa over red control in OCI-Ly3 lymphoma cells), 4 h
# In short: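 In this assay, an IκBα–CBG68 fusion accumulates when IKK-driven degradation is blocked; native CBR normalizes for cell number. OCI-Ly3 cells were treated 4 h with compound and doxycycline, then green and red light read after Chroma-Glo addition.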
# [1] = measured here: control luc red channel unless noted
# [2] = measured here: IkB-luc green channel
# [3] = measured here: control luc red channel
structure (smiles),measurement,setting,value
CC1=C(C(=O)OC2CCCCCC2)C(c2cccc(Cl)c2)CC(=O)N1 (centres undefined),AC50,[1],"31.6 µM [falling, single point]"
O=C(CSc1ccccc1C(=O)O)Nc1cccc(C(=O)O)c1,AC50,[1],"10 µM [falling, partial curve]"
CCOc1ccc(NC(=O)c2ccc(F)c(S(=O)(=O)N3CCN(c4ccccn4)CC3)c2)cc1,AC50,[1],"3.98 µM [falling, full curve, poor fit]"
Cc1ccc(CNC(=O)Cn2c(=O)n(Cc3ccc(F)cc3)c(=O)c3sc4ccccc4c32)cc1,AC50,[1],"3.16 µM [rising, full curve, poor fit]"
CCOc1ccc2[nH]c(=O)c(CN(Cc3cccs3)C(CC)c3nnnn3C(C)(C)CC)cc2c1 (centres undefined),AC50,[1],"20 µM [falling, single point]"
O=C(Nc1ccc(Cl)cc1)N1CCC(c2ccccc2)C1 (centres undefined),AC50,[1],"12.6 µM [falling, partial curve]"
CCCN(C(=O)Cn1ncc2c([nH]c3ccc(C)cc32)c1=O)c1ccccc1C,AC50,[1],"12.6 µM [falling, partial curve]"
CCc1nc2ccccc2c(C(=O)OCC(=O)NCCCN2CCCC2=O)c1C,AC50,[1],"31.6 µM [falling, single point]"
Cc1ccc(C)c(CNC(=O)c2cc3ccccn3n2)c1,AC50,[1],"10 µM [falling, partial curve]"
CCOC(=O)C1CCC(CN(Cc2cccc(Br)c2)S(=O)(=O)c2ccc(Cl)cc2)CC1 (centres undefined),AC50,[1],"7.94 µM [falling, full curve]"
Cc1cc(C(=O)N2CCN(c3cccc(Cl)c3)CC2)c(C)o1,AC50,[1],"3.98 µM [falling, partial curve]"
CCN1C(=O)C(Cc2nc3ccccc3c(=O)n2-c2ccc(OC)cc2)c2ccccc21 (centres undefined),AC50,[1],"20 µM [falling, single point]"
COc1ccc(N2CC(NC(=O)COc3ccc4ccccc4c3)CC2=O)cc1OC (centres undefined),AC50,[1],"0.0398 µM [rising, full curve, poor fit]"
CCCCC1CCC(C(=O)N2CC(=O)Nc3ccc(Cl)cc3C2c2ccc(F)cc2)CC1 (centres undefined),AC50,[1],"10 µM [falling, partial curve]"
O=C1C(=C(O)c2ccccc2)C(=O)c2ccccc21,AC50,[1],"12.6 µM [falling, partial curve]"
O=C1C2=C(Nc3ccccc3SC2c2ccco2)c2ccccc21 (centres undefined),AC50,[2],"39.8 µM [falling, single point]"
same,AC50,[3],"12.6 µM [falling, partial curve]"
COc1ccccc1CNc1nccn(-c2ccccc2)c1=O,AC50,[1],"20 µM [falling, single point]"
COc1ccc(NC(=O)c2cnc(N3CCCCC3)c3ccccc23)cc1Cl,AC50,[1],"6.31 µM [falling, full curve, poor fit]"
CCN(CC)c1ccc(-c2nc(-c3ccco3)no2)cc1[N+](=O)[O-],AC50,[1],"25.1 µM [falling, single point]"
CCC(C)NC(=O)c1sc2nc(C)c(C(=O)Nc3ccc(C)cc3C)c(-c3ccccc3Cl)c2c1N (centres undefined),AC50,[1],"0.316 µM [falling, partial curve]"
Cc1ccc(Nc2ccc(N3CCN(C(=O)c4ccc([N+](=O)[O-])cc4)CC3)nn2)cc1,AC50,[1],"15.8 µM [falling, single point]"
Cc1ccc(S(=O)(=O)NCCc2csc(-c3cccc(F)c3)n2)cc1,AC50,[1],"20 µM [falling, partial curve]"
CCOC(=O)c1cccc(NS(=O)(=O)c2cc3c(cc2C)NC(=O)CO3)c1,AC50,[1],"25.1 µM [falling, single point]"
O=C(c1ccc(Nc2nc3ccccc3n3nnnc23)cc1)N1CCN(c2cccc(C(F)(F)F)c2)CC1,AC50,[1],"5.01 µM [falling, full curve]"
Cc1ccc(NC(=O)C2CCN(c3nnc(C)c4c(C)n(-c5ccccc5)nc34)CC2)cc1Cl,AC50,[1],"0.00631 µM [falling, full curve]"
CCCCSc1nnc2c(n1)OC(C)N(C(C)=O)c1ccccc1-2 (centres undefined),AC50,[1],"0.01 µM [falling, full curve, poor fit]"
COc1ccc(CCNC(=O)C2COc3ccccc3C2)cc1OC (centres undefined),AC50,[1],"10 µM [falling, partial curve, poor fit]"
Cn1c(Oc2ccc(Cl)cc2)nc2c1c(=O)n(Cc1ccc(F)cc1)c(=O)n2C,AC50,[1],"3.98 µM [falling, full curve]"
O=C(NCCc1ccccc1)c1ccc2c(c1)N(Cc1ccc(F)cc1)C(=O)c1ccccc1S2,AC50,[1],"31.6 µM [falling, single point]"
COc1ccc(C(=O)NC(c2ccc(Cl)cc2)c2cc(Cl)c3cccnc3c2O)cc1 (centres undefined),AC50,[1],"10 µM [falling, partial curve, poor fit]"
Cc1cc(C)cc(NC(=O)CCC(=O)N2CCSc3ccccc32)c1,AC50,[1],"25.1 µM [falling, single point]"
O=C(CN1CCN(Cc2ccccc2Cl)C1=O)NC1CCCCCC1,AC50,[1],"25.1 µM [falling, single point]"
Cc1nn(-c2ccccc2)c(C)c1C(=O)OCC(=O)NC(=O)NC1CCCCC1,AC50,[1],"25.1 µM [falling, partial curve]"
COc1ccc(CC(=O)N2CCc3cc(OC)c(OC)cc3C2COc2ccc(F)cc2)cc1OC (centres undefined),AC50,[1],"7.94 µM [falling, single point]"
O=C(NCc1ccccc1)c1ccc2oc(=O)n(Cc3ccccc3)c2c1,AC50,[1],"15.8 µM [falling, single point]"
CN(C)c1ccc(NC(=O)CSC2=Nc3ccccc3C3=NC(CCC(=O)NCc4cccs4)C(=O)N23)cc1 (centres undefined),AC50,[1],"15.8 µM [falling, partial curve]"
COc1cccc(C(=O)Nc2cccc(C(=O)OCc3cc(=O)n4c(C)csc4n3)c2)c1,AC50,[1],"0.398 µM [falling, full curve]"
Cc1c(C(=O)NC(C)c2ccccc2)sc2nc3n(c(=O)c12)CCCC3 (centres undefined),AC50,[1],"20 µM [falling, partial curve]"
COCCNC(=O)c1ccc2c(c1)N=C(C)c1cc(C)ccc1S2,AC50,[2],"0.794 µM [rising, full curve]"
same,AC50,[3],"3.98 µM [rising, single point]"
Cc1nn2cc(-c3ccccc3)nc2s1,AC50,[1],"12.6 µM [falling, partial curve]"
CCN(CC)CCCNC(=O)c1ccc2c(Cl)c3c(nc2c1)CCCC3,AC50,[1],"39.8 µM [falling, single point]"
COCCCNC(=O)C1CCN(c2cc(C)nc3c(-c4ccc(Cl)cc4)c(C)nn23)CC1,AC50,[1],"0.794 µM [falling, full curve]"
CCCc1ccc(Oc2cn[nH]c2-c2ccc(O)cc2O)cc1,AC50,[1],"10 µM [falling, partial curve]"
CCOC(=O)c1c(Oc2ccc(C(C)=O)cc2)nnc(-c2ccccc2)c1-c1ccccc1,AC50,[1],"15.8 µM [falling, partial curve]"
CCc1nn2c(=O)cc(COC(=O)C(CC)c3ccccc3)nc2s1 (centres undefined),AC50,[1],"10 µM [falling, partial curve]"
COc1cccc(-c2cc(C(F)(F)F)nc(NCc3ccco3)n2)c1,AC50,[1],"25.1 µM [falling, partial curve]"
CCCNC(=O)CSc1nc(-c2ccc(OC)cc2)cc(C(F)(F)F)n1,AC50,[1],"10 µM [rising, partial curve]"
CCOC(=O)c1c(-c2ccccc2)oc2ccc(N(C(C)=O)S(=O)(=O)c3ccc(C)cc3)cc12,AC50,[1],"12.6 µM [falling, partial curve]"
O=S(=O)(Nc1nc2ccccc2nc1N1CCN(c2ccccn2)CC1)c1ccc(Cl)cc1,AC50,[1],"0.0794 µM [falling, full curve]"
CCC(=O)N1CCc2cc(Br)cc(S(=O)(=O)CCC(=O)NCCc3ccccc3)c21,AC50,[1],"0.00631 µM [falling, full curve, poor fit]"
O=c1cc(-c2ccccc2)c2ccc3c(c2o1)CN(Cc1ccccc1)CO3,AC50,[1],"3.16 µM [falling, partial curve]"
COc1ccc(NC(=O)N2CCCC(c3nc(-c4ccc(C(C)C)cc4)no3)C2)cc1 (centres undefined),AC50,[1],"20 µM [falling, partial curve]"
COc1ccc(-n2nc(C(=O)NCC(=O)NCc3ccco3)c3ccccc3c2=O)cc1Cl,AC50,[1],"5.01 µM [falling, partial curve]"
Cc1nn(-c2ccc(N3CCCCC3)nn2)c(C)c1CCC(=O)NCc1ccc(Cl)cc1,AC50,[1],"12.6 µM [falling, partial curve]"
Cn1c(=O)oc2cc(S(=O)(=O)N3CCC(C(=O)N4CCN(c5ccc(Cl)cc5)CC4)CC3)ccc21,AC50,[1],"12.6 µM [falling, partial curve]"
O=C(Nc1ccc(F)cc1)N1CCN(C/C=C/c2ccccc2)CC1,AC50,[1],"20 µM [falling, partial curve]"
CCOC(=O)c1cc(C)n(CC2CCC(C(=O)Nc3ccc(C(=O)OC)cc3)CC2)c1C (centres undefined),AC50,[1],"2.51 µM [falling, full curve]"
CCOc1ccc(-c2oc3cc(Cl)ccc3c(=O)c2O)cc1OC,AC50,[1],"0.794 µM [rising, full curve]"
COc1ccc(-c2ccc(CCC(=O)O)n2-c2ccc(Cl)cc2C)cc1,AC50,[1],"20 µM [falling, partial curve]"
CCN(C(=O)CSc1nc2ccccc2n1CC(=O)Nc1ccc(F)cc1F)c1ccccc1,AC50,[1],"39.8 µM [falling, single point]"
CCN(C(=O)CSc1nc2n[nH]c(C)c2c(=N)n1-c1cccc(OC)c1)c1cccc(C)c1,AC50,[1],"12.6 µM [falling, partial curve]"
CCc1nnc(NC(=O)OCc2ccccc2)s1,AC50,[1],"10 µM [falling, partial curve]"

# Some of the entries above in another layout:
structure (smiles)	measurement	setting	value
CCCCC1CCC(C(=O)N2CC(=O)Nc3ccc(Cl)cc3C2c2ccc(F)cc2)CC1 (centres undefined)	AC50	[1]	10 µM [falling, partial curve]
O=C1C(=C(O)c2ccccc2)C(=O)c2ccccc21	AC50	[1]	12.6 µM [falling, partial curve]
O=C1C2=C(Nc3ccccc3SC2c2ccco2)c2ccccc21 (centres undefined)	AC50	[2]	39.8 µM [falling, single point]
same	AC50	[3]	12.6 µM [falling, partial curve]
COc1ccccc1CNc1nccn(-c2ccccc2)c1=O	AC50	[1]	20 µM [falling, single point]
COc1ccc(NC(=O)c2cnc(N3CCCCC3)c3ccccc23)cc1Cl	AC50	[1]	6.31 µM [falling, full curve, poor fit]
CCN(CC)c1ccc(-c2nc(-c3ccco3)no2)cc1[N+](=O)[O-]	AC50	[1]	25.1 µM [falling, single point]
CCC(C)NC(=O)c1sc2nc(C)c(C(=O)Nc3ccc(C)cc3C)c(-c3ccccc3Cl)c2c1N (centres undefined)	AC50	[1]	0.316 µM [falling, partial curve]
Cc1ccc(Nc2ccc(N3CCN(C(=O)c4ccc([N+](=O)[O-])cc4)CC3)nn2)cc1	AC50	[1]	15.8 µM [falling, single point]
Cc1ccc(S(=O)(=O)NCCc2csc(-c3cccc(F)c3)n2)cc1	AC50	[1]	20 µM [falling, partial curve]
CCOC(=O)c1cccc(NS(=O)(=O)c2cc3c(cc2C)NC(=O)CO3)c1	AC50	[1]	25.1 µM [falling, single point]
O=C(c1ccc(Nc2nc3ccccc3n3nnnc23)cc1)N1CCN(c2cccc(C(F)(F)F)c2)CC1	AC50	[1]	5.01 µM [falling, full curve]
Cc1ccc(NC(=O)C2CCN(c3nnc(C)c4c(C)n(-c5ccccc5)nc34)CC2)cc1Cl	AC50	[1]	0.00631 µM [falling, full curve]
CCCCSc1nnc2c(n1)OC(C)N(C(C)=O)c1ccccc1-2 (centres undefined)	AC50	[1]	0.01 µM [falling, full curve, poor fit]
COc1ccc(CCNC(=O)C2COc3ccccc3C2)cc1OC (centres undefined)	AC50	[1]	10 µM [falling, partial curve, poor fit]
Cn1c(Oc2ccc(Cl)cc2)nc2c1c(=O)n(Cc1ccc(F)cc1)c(=O)n2C	AC50	[1]	3.98 µM [falling, full curve]
